The list does not hold the whole screen: it gathers tests that were run many times, whatever their T/C, doses with no T/C, and many T/C values between a quarter and a half above the control. Other doses and runs of a compound stand elsewhere. T/C is the treated group as % of the vehicle group. Some entries give survivors of the animals treated and no T/C: the source files T/C as zero there, which appears to mark a toxic dose or a test without result, not a measured value. Some survivor counts are full or nearly so, which does not show that the dose was tolerated: survival well below the control is almost never listed, so the zero probably covers shortened survival too. Survivors were counted at the toxicity check, usually on the fifth day, unless a day is given; later deaths do not show. Schedule codes are those of the source, read here as Q, the interval in days (D) or hours (H), X, the number of doses. Where survival is the endpoint, the PubChem record calls one and a half times the control and up active, and a quarter to a half above the control has no call in these data; cut-offs in other NCI protocols can differ. Some T/C values carry the count of animals alive at the toxicity check (mostly the fifth day); where none is given, no animal had died by that day.

For 28 molecules, survivor count and T/C results are on record in PubChem BioAssay AID330 (DTP/NCI, 2004).

In this test the test system is P388 leukemia ip, CD2F1 mice, survival T/C. The test can be described thus: NCI In Vivo Anticancer Drug Screen. Data for tumor model P388 Leukemia (intraperitoneal) in CD2F1 (CDF1) mice. The conditions noted are these: T/C endpoint: median survival time, higher T/C = longer survival.
[1] abbreviates: dose: 200.0 mg/kg/injection, schedule: Q01DX005 (ip), vehicle: saline.
Where [2] appears, read: dose: 240.0 mg/kg/injection, schedule: Q01DX005 (ip), vehicle: Klucel (hydroxypropylcellulose) (HPC).
[3] abbreviates: dose: 120.0 mg/kg/injection, schedule: Q01DX005 (ip), vehicle: saline with Tween-80.
[4] abbreviates: dose: 240.0 mg/kg/injection, schedule: Q01DX005 (ip), vehicle: saline with Tween-80.
[5] abbreviates: dose: 100.0 mg/kg/injection, schedule: Q01DX009 (ip), vehicle: saline with Tween-80.
The mark [6] stands for this setting: dose: 200.0 mg/kg/injection, schedule: Q01DX009 (ip), vehicle: saline with Tween-80.
The mark [7] stands for this setting: dose: 100.0 mg/kg/injection, schedule: Q01DX005 (ip), vehicle: saline with Tween-80.
Where [8] appears, read: dose: 100.0 mg/kg/injection, schedule: Q01DX005 (ip), vehicle: Klucel (hydroxypropylcellulose) (HPC).
Setting [9] is: dose: 50.0 mg/kg/injection, schedule: Q01DX005 (ip), vehicle: saline with Tween-80.
Setting [10] is: dose: 200.0 mg/kg/injection, schedule: Q01DX005 (ip), vehicle: saline with Tween-80.
[11] abbreviates: dose: 50.0 mg/kg/injection, schedule: Q01DX009 (ip), vehicle: saline.
Setting [12] is: dose: 100.0 mg/kg/injection, schedule: Q01DX009 (ip), vehicle: saline.
[13] abbreviates: dose: 200.0 mg/kg/injection, schedule: Q01DX009 (ip), vehicle: saline.

For `CCN(C(=O)CNCC(C)C)c1ccc(C)c(Cl)c1`, the survivor count under setting [1] is given as 0 of 5.

Consider `CCOC(=O)c1ccc(N=NC2Sc3nc4ccccc4n3C2=O)cc1` (centres undefined), for which the survivor count is on record as 6 of 6 (dose: 60.0 mg/kg/injection, schedule: Q01DX005 (ip), vehicle: Klucel (hydroxypropylcellulose) (HPC)); 6 of 6 (dose: 120.0 mg/kg/injection, schedule: Q01DX005 (ip), vehicle: Klucel (hydroxypropylcellulose) (HPC)); 4 of 6 under setting [2].

With `CC1(C)SC(C)(c2ccco2)N(c2nccs2)C1=O` (centres undefined), under setting [2], the survivor count is 1 of 6.

As to `CSC1=Nc2cccnc2Nc2cscc21`, the survivor count under setting [3] is 6 of 6 and the survivor count under setting [4] was 4 of 6.

As to `O=NN(CCCl)C(=O)Nc1cc(Cl)ccc1O`, the T/C (dose: 33.0 mg/kg/injection, schedule: Q04DX003 (ip), vehicle: saline with Tween-80) was 131 % of control; the T/C (dose: 50.0 mg/kg/injection, schedule: Q04DX003 (ip), vehicle: saline with Tween-80) was 145 % of control; the T/C (dose: 75.0 mg/kg/injection, schedule: Q04DX003 (ip), vehicle: saline with Tween-80) is 145 % of control; the T/C under setting [5] was 145 % of control; the T/C (dose: 100.0 mg/kg/injection, schedule: Q04DX003 (ip), vehicle: saline with Tween-80) was 131 % of control; the T/C (dose: 200.0 mg/kg/injection, schedule: Q04DX003 (ip), vehicle: saline with Tween-80) is 136 % of control [5 of 6 alive]. The survivor count under setting [6] is on record as 2 of 6.

On to `CCc1cccc(CC)c1N1C(=O)C(=O)C(C(C)=O)C1=O` (centres undefined), for which the survivor count under setting [7] is on record as 3 of 6.

On to `CCOC(=O)C1C(C)=CC2=Nc3ccccc3NC(=O)C2C1c1ccccc1` (centres undefined), for which, under setting [8], the survivor count is 0 of 6.

On to `CN=C(NC)c1ccc(NC(=O)c2cc(Cl)cc(C(=O)Nc3ccc(C(=NC)NC)cc3)c2)cc1`, for which the survivor count is listed as 0 of 6 (dose: 50.0 mg/kg/injection, schedule: Q01DX005 (ip), vehicle: saline); 0 of 6 (dose: 100.0 mg/kg/injection, schedule: Q01DX005 (ip), vehicle: saline); 0 of 6 under setting [1].

With `CC1[N-]CCCN(CCN(C)C)CCC[N-]C(C)C2CCCC1[N-]2.[Ni+3].[O-][Cl+3]([O-])([O-])O` (centres undefined), the survivor count is 2 of 6 (dose: 200.0 mg/kg/injection, schedule: Q01DX001 (ip), vehicle: saline) and 1 of 6 (dose: 400.0 mg/kg/injection, schedule: Q01DX001 (ip), vehicle: saline).

As to `COc1ccc(C(C)c2cc(N=NC(N)=O)c(OC)cc2O)cc1` (centres undefined), the survivor count runs as follows: under setting [9], 6 of 6; under setting [7], 6 of 6; under setting [10], 6 of 6.

`CCn1c2ccccc2c2cc(N=Nc3[nH]c4ccccc4c3CN(C)C)ccc21`: the T/C under setting [5] was 125 % of control.

As to `Fc1ccc(N2C(Cl)(Cl)C23c2ccccc2-c2ccccc23)cc1`, the T/C was 132 % of control (dose: 50.0 mg/kg/injection, schedule: Q01DX009 (ip), vehicle: saline with Tween-80) and 131 % of control under setting [5].

`CCc1ccc(O)c(CN2CCN(Cc3cc(CC)ccc3O)CC2)c1`: the survivor count is given as 6 of 6 (dose: 60.0 mg/kg/injection, schedule: Q01DX005 (ip), vehicle: saline with Tween-80); 6 of 6 under setting [3]; 6 of 6 under setting [4].

Regarding `COc1cccc(/C(C#N)=N/NC(=O)c2nc[nH]c2C)c1`, the survivor count is reported as 6 of 6 (dose: 12.5 mg/kg/injection, schedule: Q01DX005 (ip), vehicle: saline with Tween-80); 6 of 6 (dose: 25.0 mg/kg/injection, schedule: Q01DX005 (ip), vehicle: saline with Tween-80); 5 of 6 under setting [9].

As for `Cc1c(C)c(C)c2c(c1C)C1(C)C=CC2(C)N1C`, the survivor count by setting is: (dose: 100.0 mg/kg/injection, schedule: Q04DX002 (ip), vehicle: saline with Tween-80) 0 of 6; (dose: 200.0 mg/kg/injection, schedule: Q04DX002 (ip), vehicle: saline with Tween-80) 0 of 6; (dose: 400.0 mg/kg/injection, schedule: Q04DX002 (ip), vehicle: saline with Tween-80) 0 of 6.

Regarding `O=C(CC(CC(O)(c1ccccc1)c1ccccc1)c1ccccc1)Nc1ccccc1` (centres undefined), the survivor count runs as follows: (dose: 100.0 mg/kg/injection, schedule: Q04DX002 (ip), vehicle: Klucel (hydroxypropylcellulose) (HPC)) 4 of 6; (dose: 200.0 mg/kg/injection, schedule: Q04DX002 (ip), vehicle: Klucel (hydroxypropylcellulose) (HPC)) 6 of 6; (dose: 400.0 mg/kg/injection, schedule: Q04DX002 (ip), vehicle: Klucel (hydroxypropylcellulose) (HPC)) 6 of 6.

Consider `NC1=C(O)C(=O)C(c2ccccn2)O1` (centres undefined), for which, where the note is “dose: 200.0 mg/kg/injection, schedule: Q01DX001 (ip), vehicle: other”, the T/C was 125 % of control.

As to `O=C1OC2C(COC(=O)c3cc(O)c(O)c(O)c3)OC(OC(=O)c3cc(O)c(O)c(O)c3)C(OC(=O)c3cc(O)c(O)c4c3C3C1=CC(=O)[C@](O)(O4)C3(O)O)C2OC(=O)c1cc(O)c(O)c(O)c1` (some centres undefined), the survivor count was 4 of 6 under setting [11], 0 of 6 under setting [12] and 0 of 6 under setting [13].

Turning to `O=C(NCC(O)CNC(=O)Nc1ccc(C2=NCC(O)CN2)cc1)Nc1ccc(C2=NCC(O)CN2)cc1` (centres undefined), the survivor count reads like this: under setting [7], 1 of 6; under setting [10], 0 of 6.

With `CCCC[N+]1(CC)CCCCC1`, the survivor count under setting [11] is 0 of 6, the survivor count under setting [12] is given as 0 of 6 and the survivor count under setting [13] is 0 of 6.

With `CC(C)Cc1ncc(CC(C)C)n(O)c1=O`, the survivor count (dose: 200.0 mg/kg/injection, schedule: Q01DX005 (ip), vehicle: distilled water + Tween-80) is reported as 0 of 6.

`CC(C)(O)/C=C/C(=O)[C@](C)(O)[C@H]1[C@H](O)C[C@@]2(C)[C@@H]3CC=C4[C@@H](C=C(O)C(=O)C4(C)C)[C@]3(C)C(=O)C[C@]12C`: the survivor count is reported as 1 of 6 (dose: 2.0 mg/kg/injection, schedule: Q01DX010 (ip), vehicle: saline); 0 of 6 (dose: 4.0 mg/kg/injection, schedule: Q01DX005 (ip), vehicle: water); 0 of 6 (dose: 8.0 mg/kg/injection, schedule: Q01DX005 (ip), vehicle: water).

Consider `Cn1c(-c2ccccc2)cc2cc(CN)ccc21`, for which the survivor count (dose: 200.0 mg/kg/injection, schedule: Q01DX009 (ip), vehicle: Klucel (hydroxypropylcellulose) (HPC)) is given as 0 of 6.

For `COc1ccc(C(=O)Cc2cc(OC)c(OC)cc2Br)cc1OC`, the survivor count by setting is: under setting [9], 6 of 6; under setting [7], 6 of 6.

On to `c1cc(-c2nc3ccc(-c4nc5ccc(C6=NCCN6)cc5[nH]4)cc3[nH]2)ccc1C1=NCCN1`, for which the survivor count is recorded as 3 of 6 (dose: 25.0 mg/kg/injection, schedule: Q01DX005 (ip), vehicle: Klucel (hydroxypropylcellulose) (HPC)); 0 of 6 under setting [8]; 0 of 6 (dose: 200.0 mg/kg/injection, schedule: Q01DX005 (ip), vehicle: Klucel (hydroxypropylcellulose) (HPC)).

On to `O=NNc1ccc(Sc2ccc(NN=O)nc2)cc1`, for which the survivor count runs as follows: (dose: 25.0 mg/kg/injection, schedule: Q01DX009 (ip), vehicle: water) 6 of 6; (dose: 50.0 mg/kg/injection, schedule: Q01DX009 (ip), vehicle: water) 5 of 6.

On to `COC(=O)C1C2CCCN2OC1(C)CO` (centres undefined), for which the T/C runs as follows: (dose: 30.0 mg/kg/injection, schedule: Q01DX005 (ip), vehicle: saline) 134 % of control; (dose: 60.0 mg/kg/injection, schedule: Q01DX005 (ip), vehicle: saline) 132 % of control.

As to `CCCCCCCCC(=O)CCCC`, the survivor count runs as follows: under setting [6], 6 of 6; (dose: 400.0 mg/kg/injection, schedule: Q04DX003 (ip), vehicle: saline) 6 of 6.
